Library screen at single concentrations

Sequences of proteins named here, by UniProt entry; tags and fusion partners are left off. Residues count along the entry.
UniProt I6X8D2, whole entry: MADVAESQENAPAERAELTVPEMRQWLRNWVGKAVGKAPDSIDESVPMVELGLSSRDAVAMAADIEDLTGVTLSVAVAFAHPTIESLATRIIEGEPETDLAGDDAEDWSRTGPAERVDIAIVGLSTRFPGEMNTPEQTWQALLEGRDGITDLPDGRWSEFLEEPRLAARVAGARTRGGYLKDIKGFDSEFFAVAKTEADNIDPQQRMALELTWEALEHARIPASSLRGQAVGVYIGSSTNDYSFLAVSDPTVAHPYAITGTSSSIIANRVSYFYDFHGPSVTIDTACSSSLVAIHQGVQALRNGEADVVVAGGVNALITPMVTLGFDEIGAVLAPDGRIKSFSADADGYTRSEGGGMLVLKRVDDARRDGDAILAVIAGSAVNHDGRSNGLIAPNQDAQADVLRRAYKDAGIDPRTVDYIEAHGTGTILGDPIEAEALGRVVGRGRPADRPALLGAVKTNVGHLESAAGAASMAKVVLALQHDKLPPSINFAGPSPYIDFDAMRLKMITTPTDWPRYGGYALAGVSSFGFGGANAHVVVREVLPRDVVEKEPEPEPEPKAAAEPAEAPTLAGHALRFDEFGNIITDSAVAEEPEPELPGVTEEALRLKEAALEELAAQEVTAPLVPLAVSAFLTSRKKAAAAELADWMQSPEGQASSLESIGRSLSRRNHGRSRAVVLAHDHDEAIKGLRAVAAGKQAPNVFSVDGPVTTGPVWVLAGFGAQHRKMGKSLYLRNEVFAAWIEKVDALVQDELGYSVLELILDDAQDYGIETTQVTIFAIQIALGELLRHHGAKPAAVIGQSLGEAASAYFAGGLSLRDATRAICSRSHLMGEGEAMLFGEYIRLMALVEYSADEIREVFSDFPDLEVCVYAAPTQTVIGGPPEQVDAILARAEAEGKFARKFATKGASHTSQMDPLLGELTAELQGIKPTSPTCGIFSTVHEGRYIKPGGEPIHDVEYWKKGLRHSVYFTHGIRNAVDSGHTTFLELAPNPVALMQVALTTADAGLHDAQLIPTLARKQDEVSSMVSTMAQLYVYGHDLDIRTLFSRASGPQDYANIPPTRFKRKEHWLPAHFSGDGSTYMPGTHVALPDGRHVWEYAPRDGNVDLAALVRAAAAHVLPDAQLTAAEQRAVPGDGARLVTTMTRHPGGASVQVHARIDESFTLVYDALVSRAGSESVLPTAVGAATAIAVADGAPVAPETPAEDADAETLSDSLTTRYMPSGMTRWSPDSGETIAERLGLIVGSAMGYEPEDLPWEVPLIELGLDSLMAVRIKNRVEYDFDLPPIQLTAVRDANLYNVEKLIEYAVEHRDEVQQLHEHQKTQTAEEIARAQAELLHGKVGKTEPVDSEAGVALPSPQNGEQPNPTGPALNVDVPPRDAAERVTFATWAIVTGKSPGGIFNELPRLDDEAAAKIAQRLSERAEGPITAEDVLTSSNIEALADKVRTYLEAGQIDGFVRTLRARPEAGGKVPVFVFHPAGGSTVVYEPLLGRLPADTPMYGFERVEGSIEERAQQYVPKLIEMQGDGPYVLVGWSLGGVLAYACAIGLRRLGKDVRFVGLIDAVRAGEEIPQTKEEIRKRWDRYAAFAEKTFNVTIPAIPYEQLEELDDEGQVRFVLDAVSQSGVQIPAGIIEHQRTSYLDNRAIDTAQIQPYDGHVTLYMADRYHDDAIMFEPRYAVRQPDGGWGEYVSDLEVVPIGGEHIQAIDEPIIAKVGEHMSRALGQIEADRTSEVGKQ
UniProt A4I591, 1-473: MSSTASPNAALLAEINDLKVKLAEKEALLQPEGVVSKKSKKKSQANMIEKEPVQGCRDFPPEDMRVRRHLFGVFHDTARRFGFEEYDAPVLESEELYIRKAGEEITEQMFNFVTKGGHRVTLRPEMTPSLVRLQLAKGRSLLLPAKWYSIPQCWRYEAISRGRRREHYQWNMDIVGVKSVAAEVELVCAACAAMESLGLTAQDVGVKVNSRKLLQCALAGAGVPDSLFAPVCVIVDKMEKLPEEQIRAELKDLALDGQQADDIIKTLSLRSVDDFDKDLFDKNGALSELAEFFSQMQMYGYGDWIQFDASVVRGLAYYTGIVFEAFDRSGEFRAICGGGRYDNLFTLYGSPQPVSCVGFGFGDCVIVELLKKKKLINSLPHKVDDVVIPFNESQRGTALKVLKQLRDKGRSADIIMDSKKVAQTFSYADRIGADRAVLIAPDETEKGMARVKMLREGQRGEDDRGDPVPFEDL
UniProt P9WPC5, whole entry: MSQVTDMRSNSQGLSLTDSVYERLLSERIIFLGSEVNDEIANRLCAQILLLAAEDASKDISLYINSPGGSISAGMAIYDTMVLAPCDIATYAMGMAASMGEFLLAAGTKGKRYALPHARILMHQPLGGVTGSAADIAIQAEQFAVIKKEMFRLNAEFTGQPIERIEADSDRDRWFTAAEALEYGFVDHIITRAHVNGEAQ
UniProt P9WPC3, whole entry partner: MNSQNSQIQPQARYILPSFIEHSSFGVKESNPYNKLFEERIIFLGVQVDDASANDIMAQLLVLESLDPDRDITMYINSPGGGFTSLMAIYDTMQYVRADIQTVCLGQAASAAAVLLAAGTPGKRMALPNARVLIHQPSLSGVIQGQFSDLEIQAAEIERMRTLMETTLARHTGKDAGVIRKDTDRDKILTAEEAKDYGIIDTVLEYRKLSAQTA
UniProt P9WNZ1, whole entry: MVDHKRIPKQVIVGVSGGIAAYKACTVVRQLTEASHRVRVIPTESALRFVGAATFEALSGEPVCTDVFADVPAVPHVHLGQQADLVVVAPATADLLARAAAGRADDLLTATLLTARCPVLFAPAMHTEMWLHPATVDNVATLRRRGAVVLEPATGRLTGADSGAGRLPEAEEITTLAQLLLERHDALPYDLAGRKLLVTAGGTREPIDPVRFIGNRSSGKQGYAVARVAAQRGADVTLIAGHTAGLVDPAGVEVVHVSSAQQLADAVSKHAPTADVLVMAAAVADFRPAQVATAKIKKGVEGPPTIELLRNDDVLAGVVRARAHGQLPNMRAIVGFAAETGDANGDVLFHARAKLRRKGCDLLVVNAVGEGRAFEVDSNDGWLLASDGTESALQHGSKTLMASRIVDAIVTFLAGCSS

Measurements from “University of Dundee, Small-Polar-MMV Screening Library” (2021), ChEMBL document CHEMBL3988442.

A: 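Enzyme assay of the thioesterase domain of polyketide synthase 13; the read-out is not stated. Target: Polyketide synthase Pks13, Mycobacterium tuberculosis (UniProt I6X8D2). Compounds at 30 µM. The record gives no direction; the compounds picked for IC50 retests had high values, so higher reads as stronger inhibition. About 67,000 compounds were tested under these conditions; 0.46% (about 300) showed 50% or more at least once.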
B: 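Histidine-tRNA ligase, Leishmania infantum (UniProt A4I591). Enzyme assay of histidyl-tRNA synthetase; the read-out is not stated. Compounds at 30 µM. The record gives no direction; compounds that gave an IC50 in retests scored well above the rest, so higher reads as stronger inhibition. The assay is labelled LdHisRS but filed under L. infantum. About 69,000 compounds were tested under these conditions; 0.6% (about 410) showed 50% or more at least once.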
C: 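Cell assay of Leishmania donovani living inside macrophages; the read-out is not stated. Compounds at 30 µM. Higher reads as stronger inhibition (inferred: compounds with an IC50 in retests scored well above the rest). About 69,000 compounds were tested under these conditions; 1.5% (about 1,000) showed 50% or more at least once.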
D: 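Protease assay of ClpP1P2, read by the AMC dye that it sets free. Target: ClpP1P2, Mycobacterium tuberculosis (UniProt P9WPC5 and UniProt P9WPC3). Concentration: 50 µM. Direction is inferred from only a few compounds that gave an IC50; most scored high, so higher reads as stronger inhibition. Most other retested compounds had strongly negative values. About 69,000 compounds were tested under these conditions; 0.015% (about 10) showed 50% or more at least once.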
E: 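Assay of Toxoplasma gondii numbers, read through their beta-galactosidase reporter with a colour substrate. Tested at 10 µM. The record gives no direction; the compounds picked for IC50 retests had high values, so higher reads as fewer parasites. About 67,000 compounds were tested under these conditions; 0.38% (about 260) showed 50% or more at least once.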
F: 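Enzyme assay of CoaBC with a phosphate dye (Biomol Green) read at 650 nm. Target: Coenzyme A biosynthesis protein CoaBC, Mycobacterium tuberculosis (UniProt P9WNZ1). Concentration: 30 µM. Higher reads as stronger inhibition, judged from the few compounds that gave an IC50. Most strong results did not repeat in a second test. Size under these conditions: about 67,000 compounds, about 40 of them at 50% or above in at least one test.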

The filed quantity is “Percent Effect” (%).
The record does not define 0% and 100%; most values in the screen are far below 50% and negative numbers occur (in some assays of this library far below -100).
This is an unselected part of the compounds tested.
A dash means the value is not listed here; it may have been measured.

For Cn1cc(CN2CCC3(CC2)CCN(C(=O)c2cscn2)C3)cn1 the result was A: 7.174%; B: 1.613%; D: -18.69%; F: 1.11%. COc1ccccc1CNC(Cc1cccs1)c1nc(C)c(C)s1 (centres undefined) read A: 3.41%; B: -11.58%; D: -18%; F: 1.703%. For CNC(=O)NCC1CCC2(CCN(C(=O)c3ccccc3)CC2)CO1 (centres undefined) the result was A: -12.95%; B: 13.64%; C: 42.48%; D: -8.223%; E: -47.34%; F: 2.222%. CC(C)(O)CCc1cccc(C(=O)NCCC2CCOC2)c1 (centres undefined) read A: -4.136%; B: 3.279%; C: 8.865%; D: -20.38%; E: 3.162%; F: 1.023%. CC(C)Nc1ccc2c(c1)C1(CCOCC1)C(=O)N2c1ccsc1 gave A: -15.76%; B: -43.59%; C: 18.53%; D: -6.68%; E: -15.24%; F: -2.5%. For c1cc(C2CCN(Cc3nc(-c4ccsc4)no3)CC2)[nH]n1 the result was A: -11.38%; B: 6.452%; C: 10.46%; D: -12.67%; E: 11.31%; F: 2.689%. Result for CC(=O)N1CCN(C(=O)c2cnn(-c3ccccc3Cl)c2)CC1 was A: -8.662%; B: 21.43%; C: 22.8%; D: 11.46%; E: 13.5%; F: -2.254%.

Result for Cc1noc(C)c1CN1C(=O)[C@H]2CC[C@@H]1CN(Cc1ccc(Cl)cc1)C2 was A: -16.41%; B: 9.091%; D: 9.242%; F: -5.72%. Result for CNC(=O)c1cccc(CNC(C)c2cc(C)ccc2OC(F)F)c1 (centres undefined) was A: -37.55%; B: 1.709%; C: 11.35%; D: -21.85%; E: 18.06%; F: -1.282%. Cc1cc(C)n(C2CN(CCc3ccncc3)C2)n1 read A: 8.761%; B: 24.39%; C: -12.06%; D: -11.93%; E: -20.49%; F: 2.672%. CN(C)C[C@@H]1CN(C(=O)Cc2cccc(O)c2)C[C@@H]1CO read A: -22.57%; B: 14.75%; C: 16.2%; D: -1.006%; E: 18.26%; F: 3.325%. For COc1ccccc1CC(=O)NCCCN1CCCC1C(=O)N(C)C (centres undefined) the result was A: -4.854%; B: 26.92%; C: 29.21%; D: -4.947%; E: -3.394%; F: 8.742%. With CC(C)CCN(C(=O)c1cc2c([nH]c1=O)CCCC2=O)C1CC1 the screen gave A: -8.314%; B: 17.78%; C: 18.37%; D: -11.54%; E: -2.594%; F: 0%. With O=C(Cc1n[nH]c2ccccc12)N1CCC(Nc2cccnn2)CC1 the screen gave A: -15.95%; B: 9.375%; C: 25.89%; D: -3.191%; E: -1.78%; F: 1.318%.

CC(C)(C)NC(=O)CN1CCN(C(=O)Nc2ccc(F)cc2F)CC1 gave B: 3.81%; C: -18.22%; D: 7.401%; E: 27.05%; F: -10.97%. Cc1cc(-n2cncn2)ccc1C(=O)N(C)CC(F)(F)C(F)(F)F read A: 4.085%; B: 15.79%; C: 13.57%; D: 4.038%; E: -16.81%; F: -1.21%. With COc1cc(N2C[C@@H]3CC[C@H](C2)N(CC2CCC2)C3=O)ncn1 the screen gave A: -4.745%; B: 11.29%; D: -19.1%; F: 3.083%. With CN1CCN(c2ccccc2NC(=O)NCCc2ccccc2)CC1 the screen gave A: -40.06%; B: 24.05%; C: 24.05%; D: -7.045%; E: -1.986%; F: 2.662%. For O=C(NCC1CCCO1)c1nc2c(s1)CCCN2C(=O)C1CC1 (centres undefined) the result was A: -14.42%; B: 1.389%; C: 10.58%; D: -21.17%; E: -0.6331%; F: 0.3699%. N#Cc1ccc(CNC(=O)NC2CCCN(c3ncccn3)C2)cc1 (centres undefined) read A: 4.233%; B: 16.98%; C: 1.637%; D: -2.075%; E: -0.6734%; F: -29.68%. O=C(O)C(F)(F)F.[H][C@@]12CN(Cc3ccc(OC)cc3)C[C@]1([H])OCCN2C read C: 22.84%; E: -4.412%.

Cc1ccc2c(n1)N(CCN(C)C)CCN(C(=O)c1cccs1)C2.O=C(O)C(F)(F)F.O=C(O)C(F)(F)F gave C: 50.31%; E: 9.815%. For CC1CCCN(Cc2c(C3CC3)[nH]c3ncccc23)C1 (centres undefined) the result was A: 8.577%; B: 7.292%; C: -4.47%; D: 1.333%; E: 23.79%; F: -1.716%. Cc1cccc(S(=O)(=O)N2CC[C@H]3[C@H]2CCN3c2ncccn2)c1 gave B: 17.09%; D: -20.74%. With COCCN1CCC(CNC(=O)C2(c3ccccc3)CCC2)C1 (centres undefined) the screen gave A: -2.922%; B: 22.32%; C: 34.37%; D: -40.79%; E: -7.323%; F: 0.3831%. Result for Cc1ccc(-n2nnc(C(=O)O)c2C)c(C)c1 was A: -9.12%; B: 17.39%; C: 13.8%; D: 4.052%; F: -2.066%.

2 of the entries, repeated:

| structure | A | B | C | D | E | F |
|---|---|---|---|---|---|---|
| `COCCN1CCC(CNC(=O)C2(c3ccccc3)CCC2)C1` (centres undefined) | -2.922 | 22.32 | 34.37 | -40.79 | -7.323 | 0.3831 |
| `CC(C)(C)NC(=O)CN1CCN(C(=O)Nc2ccc(F)cc2F)CC1` | - | 3.81 | -18.22 | 7.401 | 27.05 | -10.97 |